All values are in %.
The record does not define 0% and 100%; most values in the screen are far below 50% and negative numbers occur (in some assays of this library far below -100).
Compounds were drawn at random from those tested, without regard to their results.

Sequences of proteins named here, by UniProt entry; tags and fusion partners are left off.
UniProt E9BF75, entry or part of it: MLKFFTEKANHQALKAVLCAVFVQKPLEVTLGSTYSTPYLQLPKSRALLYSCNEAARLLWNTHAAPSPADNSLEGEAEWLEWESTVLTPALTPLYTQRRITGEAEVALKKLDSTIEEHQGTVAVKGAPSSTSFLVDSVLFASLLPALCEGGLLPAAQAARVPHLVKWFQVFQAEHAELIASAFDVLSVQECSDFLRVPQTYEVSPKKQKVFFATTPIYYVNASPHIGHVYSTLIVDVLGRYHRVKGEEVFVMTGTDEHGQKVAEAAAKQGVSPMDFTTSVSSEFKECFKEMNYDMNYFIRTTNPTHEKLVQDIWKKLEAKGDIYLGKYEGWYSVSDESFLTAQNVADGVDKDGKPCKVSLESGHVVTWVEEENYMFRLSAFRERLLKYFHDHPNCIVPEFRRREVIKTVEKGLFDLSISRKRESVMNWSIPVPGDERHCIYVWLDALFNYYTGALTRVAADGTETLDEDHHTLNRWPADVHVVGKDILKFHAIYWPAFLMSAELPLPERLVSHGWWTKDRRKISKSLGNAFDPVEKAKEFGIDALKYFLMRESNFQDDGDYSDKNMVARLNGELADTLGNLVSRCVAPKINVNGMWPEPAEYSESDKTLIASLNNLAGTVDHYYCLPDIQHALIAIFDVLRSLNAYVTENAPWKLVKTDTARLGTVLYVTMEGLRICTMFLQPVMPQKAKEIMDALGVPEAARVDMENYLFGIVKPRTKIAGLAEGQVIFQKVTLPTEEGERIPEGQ

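Primary screen of methionyl-tRNA synthetase; the read-out is not stated. Target: Methionyl-tRNA synthetase (putative), Leishmania donovani (UniProt E9BF75). The test concentration is not given. The values are filed as inhibition. About 68,000 compounds were tested under these conditions; 0.035% (about 24) showed 50% or more at least once.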

| # | SMILES | Inhibition |
|---|---|---|
| 1 | `CC(O)(CCc1ccccc1)CNC(=O)c1ccc(F)cc1` (stereo not shown) | 8.633 |
| 2 | `Cc1nnsc1C(=O)N1CCCC(n2nnc3cc(F)ccc32)C1` (stereo not shown) | 11.98 |
| 3 | `CCn1cnnc1C1CCN(C(=O)c2cc3c(s2)CCOC3)CC1` | 10.61 |
| 4 | `CNC(=O)[C@@]12CCCN(c3ncccn3)[C@@H]1CN(c1ncc(F)cn1)C2` | 12.06 |
| 5 | `Cc1nnc(N2CCCC(CS(N)(=O)=O)C2)c(C#N)c1C` (stereo not shown) | -2.405 |
| 6 | `Cc1nc(C(=O)NS(=O)(=O)c2cccc(C#N)c2)cs1` | 11.56 |
| 7 | `COc1cccc2c1OCC(C(=O)NCCCn1nc(C)c(Cl)c1C)C2` (stereo not shown) | 15.85 |
| 8 | `CNS(=O)(=O)c1cccc(C(C)NCc2ccc(F)c(F)c2)c1` (stereo not shown) | 7.692 |
| 9 | `CCn1ncc2c(C(F)(F)F)cc(-c3cnn(C)c3)nc21` | 14.82 |
| 10 | `O=C(c1cncc(N2CCC3(CCNCC3)CC2)n1)N1CCCC1` | 13.66 |
| 11 | `Cc1nccn1CCN(C)C(=O)c1cn(CC2CCCCC2)nn1` | 14.86 |
| 12 | `Cc1noc(C2CCCCN2C(=O)C2CCN(C(C)C)CC2)n1` (stereo not shown) | 2.667 |
| 13 | `O=C(NCc1nnc2n1CCC2)c1cn(-c2cccc(Br)c2)nn1` | 14.85 |
| 14 | `CC(C(=O)N1CCN(c2ncccn2)CC1)n1cncn1` (stereo not shown) | 15.38 |
| 15 | `CCc1nnsc1C(=O)N1CCCC(n2ccnc2C(C)C)C1` (stereo not shown) | 9.714 |
| 16 | `COC(C)c1cccc(NCc2cccc(O)c2)c1` (stereo not shown) | 9.021 |
| 17 | `Cc1cc(C(C)(O)CNC(=O)CCn2ccnc2C(C)C)c(C)o1` (stereo not shown) | 6.977 |
| 18 | `CCCn1cnnc1CNC(=O)C1COc2c(cccc2OC)C1` (stereo not shown) | 1.761 |
| 19 | `COc1ccc(C2(C(=O)N3C[C@@H](C(=O)O)[C@H](C(C)C)C3)CC2)cc1` | 10.64 |
| 20 | `COc1ccc2c(c1)CC(C(=O)N(C)CCCc1cnn(C)c1)CO2` (stereo not shown) | 3.2 |
| 21 | `c1cc(-c2nccn2CCc2nc3c(s2)CCC3)ccn1` | 4.178 |
| 22 | `COc1cnc(N2CCCN(c3ccc(F)cc3)CC2)nc1` | 6.25 |
| 23 | `COCCNC(=O)C1CN(Cc2cccnc2)Cc2ccnn2C1` (stereo not shown) | 11.75 |
| 24 | `COCCOc1cccc(CNC(=O)CN2CCN(C)CC2C)c1` (stereo not shown) | 3.492 |
| 25 | `Cc1ccccc1CS(=O)(=O)NCCCN1CCCCC1` | 14.63 |
| 26 | `CCOCC1CN(C(=O)c2cccnc2)Cc2cnn(C)c21` (stereo not shown) | 15.62 |
| 27 | `CC(c1cn2ncsc2n1)N1Cc2ncccc2C1=O` (stereo not shown) | 14.03 |
| 28 | `O=c1cnc2ccccc2n1CCCn1ccnc1` | 5.81 |
| 29 | `CC(C)(C)c1n[nH]c(C2CN(C(=O)CCc3ccco3)CCO2)n1` (stereo not shown) | 13.68 |
| 30 | `CCn1cc(CN2CCCN(C(=O)CCc3nccs3)CC2)cn1` | 20.23 |
| 31 | `NC(=O)C1CCN(C(=O)c2ccccc2OCc2ccccc2Cl)CC1` | 3.559 |
| 32 | `NCc1cccc(-c2cccnc2C(=O)NCCN2CCOCC2)c1` | 8.861 |
| 33 | `COCc1nc2cc3c(cc2c(=O)o1)OCCCO3` | 13.6 |
| 34 | `Cc1noc(C2CN(CC(=O)NCC3CCCO3)C2)n1` (stereo not shown) | 15.83 |
| 35 | `COC(=O)CC1CCN(C(=O)Nc2ccc(-c3ccn[nH]3)cc2)C1` (stereo not shown) | 6.137 |
| 36 | `COc1ncc(CN(C)C(C)c2cccnc2)cn1` (stereo not shown) | 11.17 |
| 37 | `CCCc1cc(=O)[nH]c(-n2nc(C3CC3)cc2N)n1` | 10.06 |
| 38 | `c1c(-c2nc(CN3CCOCC3)no2)nnn1CC1CCCCC1` | 4.267 |
| 39 | `O=C(CSCc1ccccn1)N(Cc1ccsc1)C1CC1` | -0.2457 |
| 40 | `COCCNC(=O)Nc1ccc(-n2cncn2)c(F)c1` | 7.143 |
| 41 | `CCCc1nn(C2CCCN(C(C)C)C2=O)c(=O)o1` (stereo not shown) | 6.183 |
| 42 | `CN(Cc1ccco1)C(=O)CN1CCCC1Cn1cncn1` (stereo not shown) | 26.14 |
| 43 | `COC(=O)c1cccc(S(=O)(=O)Nc2ccc(Cl)c(C(N)=O)c2)c1` | -0.2688 |
| 44 | `CCOC(=O)C1CC2(CCOCC2)N2CCC(=O)N12` (stereo not shown) | 4.658 |
| 45 | `O=C(c1ccccn1)N1CCCC(c2ncncc2-c2ccncc2)C1` (stereo not shown) | 12.3 |
| 46 | `CCCn1nccc1-c1cc(C2CCN(C(C)=O)CC2)ccn1` | 17.42 |
| 47 | `Cc1cc(-c2cnc(NCc3cccnc3)nc2C(C)(C)C)on1` | 12.89 |
| 48 | `Cn1nc2c(cc1=O)CN(c1ncnc3sccc13)CC2` | 12.63 |
| 49 | `CS(=O)(=O)NCCCN1CCCC1c1ccccc1` (stereo not shown) | 7.042 |
| 50 | `Cc1cc(C)n(CC2CCCCN2Cc2cscn2)n1` (stereo not shown) | 18.75 |
| 51 | `O=C(CCc1cc2n(n1)CCCNC2)N1CCSCC1` | 8.303 |
| 52 | `Cc1cc(CN2CCN(C(=O)NCc3cccs3)CC2)on1` | 17.14 |
| 53 | `Cc1ccc(S(=O)(=O)c2ncccc2CN2CCN(C)CC2)cc1` | 2.121 |
| 54 | `CC(C)N(C)Cc1nnc2n1CCCN(C(=O)c1ccco1)C2` | 15.69 |
| 55 | `CNc1ncc(C(=O)N2CCOC(C(=O)NC3CCCC3)C2)cn1` (stereo not shown) | 9.574 |
| 56 | `O=C(c1cnc2ccc(F)cc2c1NCc1ccccn1)N1CCCC1` | 11.8 |

Some entries from above, unchanged:

SMILES,Inhibition
CC(c1cn2ncsc2n1)N1Cc2ncccc2C1=O (stereo not shown),14.03
O=C(NCc1nnc2n1CCC2)c1cn(-c2cccc(Br)c2)nn1,14.85
CCCn1nccc1-c1cc(C2CCN(C(C)=O)CC2)ccn1,17.42
CCc1nnsc1C(=O)N1CCCC(n2ccnc2C(C)C)C1 (stereo not shown),9.714

Source: ChEMBL document CHEMBL3988442, “University of Dundee, Small-Polar-MMV Screening Library” (2021).